Laboratory results reported in the supplement of paper PMC10849652.
Some of the results follow.

Amino acid sequences for entries named in this document (tags omitted). A change or cut given only in a name is not applied to a line headed by its entry.
UniProt Q6P5Z2: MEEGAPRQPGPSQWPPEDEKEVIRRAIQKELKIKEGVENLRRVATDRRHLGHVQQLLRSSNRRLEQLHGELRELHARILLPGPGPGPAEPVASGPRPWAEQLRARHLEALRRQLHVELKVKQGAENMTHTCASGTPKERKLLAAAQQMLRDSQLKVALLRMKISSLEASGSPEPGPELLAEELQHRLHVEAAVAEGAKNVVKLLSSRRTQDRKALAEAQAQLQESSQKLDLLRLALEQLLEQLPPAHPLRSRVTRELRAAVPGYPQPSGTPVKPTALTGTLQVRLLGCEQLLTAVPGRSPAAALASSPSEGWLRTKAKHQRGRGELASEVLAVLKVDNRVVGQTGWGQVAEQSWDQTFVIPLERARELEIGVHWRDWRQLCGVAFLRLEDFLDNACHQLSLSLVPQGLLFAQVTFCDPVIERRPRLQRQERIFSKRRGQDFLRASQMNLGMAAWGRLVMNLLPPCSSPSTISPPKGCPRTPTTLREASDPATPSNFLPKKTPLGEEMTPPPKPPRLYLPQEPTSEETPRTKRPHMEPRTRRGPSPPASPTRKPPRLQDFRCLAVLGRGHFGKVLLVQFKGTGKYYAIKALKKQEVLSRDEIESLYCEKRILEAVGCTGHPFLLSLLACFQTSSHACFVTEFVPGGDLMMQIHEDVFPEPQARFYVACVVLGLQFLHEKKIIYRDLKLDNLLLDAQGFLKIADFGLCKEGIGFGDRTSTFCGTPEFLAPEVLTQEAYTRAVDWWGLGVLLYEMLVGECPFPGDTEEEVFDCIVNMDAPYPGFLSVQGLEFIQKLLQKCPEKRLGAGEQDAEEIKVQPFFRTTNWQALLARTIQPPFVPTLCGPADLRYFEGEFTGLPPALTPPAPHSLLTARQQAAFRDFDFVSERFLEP
UniProt Q6NSJ2: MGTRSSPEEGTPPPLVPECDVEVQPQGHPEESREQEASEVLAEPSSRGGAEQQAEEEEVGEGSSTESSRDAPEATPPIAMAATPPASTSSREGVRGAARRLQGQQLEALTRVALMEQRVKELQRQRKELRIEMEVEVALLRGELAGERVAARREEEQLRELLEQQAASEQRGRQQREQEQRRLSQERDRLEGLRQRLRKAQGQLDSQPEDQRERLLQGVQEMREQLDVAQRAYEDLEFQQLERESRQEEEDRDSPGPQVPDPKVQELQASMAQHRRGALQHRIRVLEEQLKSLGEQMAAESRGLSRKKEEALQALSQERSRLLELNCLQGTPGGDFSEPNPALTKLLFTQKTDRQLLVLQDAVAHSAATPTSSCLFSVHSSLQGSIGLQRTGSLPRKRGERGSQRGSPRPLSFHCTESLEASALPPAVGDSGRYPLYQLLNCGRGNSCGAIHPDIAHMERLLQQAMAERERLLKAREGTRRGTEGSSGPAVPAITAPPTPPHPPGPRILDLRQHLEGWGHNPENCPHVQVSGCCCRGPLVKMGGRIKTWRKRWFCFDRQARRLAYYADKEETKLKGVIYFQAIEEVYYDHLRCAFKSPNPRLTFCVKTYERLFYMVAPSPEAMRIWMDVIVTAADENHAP
UniProt O75167: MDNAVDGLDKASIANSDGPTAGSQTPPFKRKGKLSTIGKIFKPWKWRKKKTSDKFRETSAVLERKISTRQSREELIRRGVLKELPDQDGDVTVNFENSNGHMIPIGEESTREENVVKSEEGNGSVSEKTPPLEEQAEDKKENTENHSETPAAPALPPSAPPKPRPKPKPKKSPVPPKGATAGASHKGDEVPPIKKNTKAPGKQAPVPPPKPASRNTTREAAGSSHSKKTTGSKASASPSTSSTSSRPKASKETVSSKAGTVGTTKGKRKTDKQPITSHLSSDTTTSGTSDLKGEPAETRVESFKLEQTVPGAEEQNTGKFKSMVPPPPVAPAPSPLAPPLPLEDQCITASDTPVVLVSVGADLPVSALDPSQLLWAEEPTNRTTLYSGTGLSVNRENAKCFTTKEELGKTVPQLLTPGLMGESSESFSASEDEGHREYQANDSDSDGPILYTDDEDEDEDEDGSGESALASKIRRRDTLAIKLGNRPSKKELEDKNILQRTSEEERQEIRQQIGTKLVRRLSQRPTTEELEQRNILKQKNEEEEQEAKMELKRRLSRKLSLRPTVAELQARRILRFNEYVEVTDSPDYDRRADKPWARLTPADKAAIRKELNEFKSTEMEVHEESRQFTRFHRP
UniProt Q99755: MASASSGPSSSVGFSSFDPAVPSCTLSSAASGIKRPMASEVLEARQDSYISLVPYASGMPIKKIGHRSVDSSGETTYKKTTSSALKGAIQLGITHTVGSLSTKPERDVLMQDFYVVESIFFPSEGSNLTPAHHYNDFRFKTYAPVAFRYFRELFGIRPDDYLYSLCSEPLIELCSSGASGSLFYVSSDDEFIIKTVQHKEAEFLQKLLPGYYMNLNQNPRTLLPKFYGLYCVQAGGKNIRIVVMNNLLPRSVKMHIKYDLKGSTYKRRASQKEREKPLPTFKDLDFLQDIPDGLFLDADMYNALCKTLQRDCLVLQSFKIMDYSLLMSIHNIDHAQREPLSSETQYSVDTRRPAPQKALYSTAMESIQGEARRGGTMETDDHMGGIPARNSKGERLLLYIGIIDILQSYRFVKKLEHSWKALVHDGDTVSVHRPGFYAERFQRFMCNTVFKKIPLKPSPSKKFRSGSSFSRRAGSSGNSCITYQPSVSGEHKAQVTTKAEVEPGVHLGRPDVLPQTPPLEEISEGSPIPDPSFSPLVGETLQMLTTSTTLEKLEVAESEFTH
UniProt Q03405, whole entry, looked up: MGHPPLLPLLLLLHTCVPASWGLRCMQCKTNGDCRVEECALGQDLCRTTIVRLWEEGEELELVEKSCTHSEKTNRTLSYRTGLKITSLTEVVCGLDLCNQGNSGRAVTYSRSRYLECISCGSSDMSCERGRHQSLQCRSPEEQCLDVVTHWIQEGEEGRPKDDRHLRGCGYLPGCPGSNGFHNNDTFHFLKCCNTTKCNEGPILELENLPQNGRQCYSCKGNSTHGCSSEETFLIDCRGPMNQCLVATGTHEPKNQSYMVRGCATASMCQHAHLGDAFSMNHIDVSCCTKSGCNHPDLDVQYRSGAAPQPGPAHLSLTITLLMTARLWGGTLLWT
UniProt Q9UPP1: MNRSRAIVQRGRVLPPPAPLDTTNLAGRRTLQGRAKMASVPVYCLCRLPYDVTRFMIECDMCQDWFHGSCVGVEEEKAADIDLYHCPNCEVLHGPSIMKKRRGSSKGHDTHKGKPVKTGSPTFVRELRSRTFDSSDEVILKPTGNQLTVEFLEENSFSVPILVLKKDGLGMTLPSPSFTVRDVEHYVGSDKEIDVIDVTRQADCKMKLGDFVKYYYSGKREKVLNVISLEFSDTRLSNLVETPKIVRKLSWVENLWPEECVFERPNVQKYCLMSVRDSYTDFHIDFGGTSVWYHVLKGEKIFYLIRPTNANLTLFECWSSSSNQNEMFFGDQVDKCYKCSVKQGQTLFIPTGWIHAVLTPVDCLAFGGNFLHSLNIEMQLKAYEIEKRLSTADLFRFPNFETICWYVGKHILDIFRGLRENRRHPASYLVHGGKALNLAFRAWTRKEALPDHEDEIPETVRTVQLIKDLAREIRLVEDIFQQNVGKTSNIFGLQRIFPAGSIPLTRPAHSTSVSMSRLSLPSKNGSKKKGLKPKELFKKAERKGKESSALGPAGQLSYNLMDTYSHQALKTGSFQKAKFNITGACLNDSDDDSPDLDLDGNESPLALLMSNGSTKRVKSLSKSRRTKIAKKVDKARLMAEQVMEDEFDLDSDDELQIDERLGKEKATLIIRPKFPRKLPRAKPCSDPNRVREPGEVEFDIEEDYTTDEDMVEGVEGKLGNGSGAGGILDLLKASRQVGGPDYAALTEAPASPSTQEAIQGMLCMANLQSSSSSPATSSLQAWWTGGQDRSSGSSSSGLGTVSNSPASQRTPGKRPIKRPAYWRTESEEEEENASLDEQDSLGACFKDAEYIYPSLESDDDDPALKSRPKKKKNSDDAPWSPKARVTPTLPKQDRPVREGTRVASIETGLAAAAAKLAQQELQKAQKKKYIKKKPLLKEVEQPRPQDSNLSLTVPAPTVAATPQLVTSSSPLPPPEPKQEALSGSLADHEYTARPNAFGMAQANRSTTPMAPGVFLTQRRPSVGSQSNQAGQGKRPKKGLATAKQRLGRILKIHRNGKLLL
UniProt Q9Y2B2: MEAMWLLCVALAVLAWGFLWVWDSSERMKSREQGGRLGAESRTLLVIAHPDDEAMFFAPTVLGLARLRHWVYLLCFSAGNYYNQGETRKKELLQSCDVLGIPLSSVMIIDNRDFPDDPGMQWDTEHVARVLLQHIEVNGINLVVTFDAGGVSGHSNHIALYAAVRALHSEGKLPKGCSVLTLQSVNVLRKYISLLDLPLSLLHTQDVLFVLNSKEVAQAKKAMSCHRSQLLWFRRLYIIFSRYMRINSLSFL
UniProt P36871: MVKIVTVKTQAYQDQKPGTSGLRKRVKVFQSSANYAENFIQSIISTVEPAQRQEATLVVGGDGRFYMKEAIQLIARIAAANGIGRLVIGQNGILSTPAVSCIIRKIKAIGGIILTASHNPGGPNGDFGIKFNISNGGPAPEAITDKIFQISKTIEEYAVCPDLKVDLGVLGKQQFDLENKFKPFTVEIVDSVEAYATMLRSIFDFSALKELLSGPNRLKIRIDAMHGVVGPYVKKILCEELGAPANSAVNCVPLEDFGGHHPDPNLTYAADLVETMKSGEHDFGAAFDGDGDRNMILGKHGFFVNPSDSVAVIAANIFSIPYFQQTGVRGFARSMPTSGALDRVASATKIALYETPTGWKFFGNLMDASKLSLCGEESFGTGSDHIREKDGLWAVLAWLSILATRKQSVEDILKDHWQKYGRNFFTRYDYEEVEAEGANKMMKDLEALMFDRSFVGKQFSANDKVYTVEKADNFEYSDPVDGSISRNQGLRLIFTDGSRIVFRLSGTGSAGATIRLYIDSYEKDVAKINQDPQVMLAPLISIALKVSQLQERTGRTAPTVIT
UniProt O60331: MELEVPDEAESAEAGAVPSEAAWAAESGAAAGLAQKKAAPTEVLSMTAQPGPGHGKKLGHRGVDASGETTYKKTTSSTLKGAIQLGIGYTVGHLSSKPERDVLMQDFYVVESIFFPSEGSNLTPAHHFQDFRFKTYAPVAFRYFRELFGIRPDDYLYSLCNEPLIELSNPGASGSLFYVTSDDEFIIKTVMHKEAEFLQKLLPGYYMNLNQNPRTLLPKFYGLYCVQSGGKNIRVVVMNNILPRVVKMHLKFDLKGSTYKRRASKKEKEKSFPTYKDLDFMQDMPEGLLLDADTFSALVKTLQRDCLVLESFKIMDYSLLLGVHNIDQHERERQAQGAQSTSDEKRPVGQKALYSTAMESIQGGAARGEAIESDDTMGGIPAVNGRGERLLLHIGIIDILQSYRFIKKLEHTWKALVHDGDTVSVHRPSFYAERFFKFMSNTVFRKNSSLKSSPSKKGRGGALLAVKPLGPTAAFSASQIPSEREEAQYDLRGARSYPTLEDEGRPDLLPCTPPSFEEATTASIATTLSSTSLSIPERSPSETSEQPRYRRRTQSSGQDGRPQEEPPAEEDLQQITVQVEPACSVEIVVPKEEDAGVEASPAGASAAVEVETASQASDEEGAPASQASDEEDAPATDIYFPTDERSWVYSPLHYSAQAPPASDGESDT
UniProt Q92521: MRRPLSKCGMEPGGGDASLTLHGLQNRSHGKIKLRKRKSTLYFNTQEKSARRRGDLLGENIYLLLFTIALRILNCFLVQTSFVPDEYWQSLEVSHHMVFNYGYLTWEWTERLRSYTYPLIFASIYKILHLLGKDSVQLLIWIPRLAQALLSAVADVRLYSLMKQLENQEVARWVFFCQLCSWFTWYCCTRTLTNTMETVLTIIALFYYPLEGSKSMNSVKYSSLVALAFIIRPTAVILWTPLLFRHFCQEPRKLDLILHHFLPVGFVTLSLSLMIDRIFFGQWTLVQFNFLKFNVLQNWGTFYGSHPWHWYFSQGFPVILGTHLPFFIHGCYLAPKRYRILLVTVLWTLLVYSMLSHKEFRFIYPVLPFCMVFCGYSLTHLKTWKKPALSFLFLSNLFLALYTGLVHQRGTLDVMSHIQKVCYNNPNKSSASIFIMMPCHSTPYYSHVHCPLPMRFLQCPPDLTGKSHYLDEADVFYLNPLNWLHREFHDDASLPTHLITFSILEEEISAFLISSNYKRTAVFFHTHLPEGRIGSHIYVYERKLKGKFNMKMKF
UniProt Q9HB19: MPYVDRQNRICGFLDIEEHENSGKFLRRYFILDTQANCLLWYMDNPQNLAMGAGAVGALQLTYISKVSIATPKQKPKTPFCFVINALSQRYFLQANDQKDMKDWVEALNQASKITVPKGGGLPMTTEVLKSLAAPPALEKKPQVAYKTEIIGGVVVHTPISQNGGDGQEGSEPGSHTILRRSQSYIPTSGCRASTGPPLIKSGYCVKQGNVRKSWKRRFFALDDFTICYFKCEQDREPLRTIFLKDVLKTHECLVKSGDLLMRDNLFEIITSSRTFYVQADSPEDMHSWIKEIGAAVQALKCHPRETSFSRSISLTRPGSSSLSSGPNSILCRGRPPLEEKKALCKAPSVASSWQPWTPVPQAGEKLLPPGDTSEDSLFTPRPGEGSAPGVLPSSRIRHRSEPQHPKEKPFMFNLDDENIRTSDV

Columns and labels:
Test in all cases: log2 fold change, soluble protein after heating vs DMSO (PISA); higher = thermal stabilisation; K562 lysate, 10 uM; active = over 0.2 and 3.5 SD of the protein, either way, in both replicates (recomputed)
erlotinib = compound: C#Cc1cccc(Nc2ncnc3cc(OCCOC)c(OCCOC)cc23)c1 [erlotinib]
Procedure, shortened: (§1)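 Dounce homogenisation of K562 pellets in PBS pH 7.4 with 1 mM MgCl2 produced a crude extract, used at 1 mg/mL protein. Exposure to 10 μM compound lasted 30 min, and aliquots were then heated for 3 min across 48°C-58°C, pooled and brought to 0.5% NP-40 at 4°C. The supernatant after 21,000xg for 90 min was quantified by TMTpro 16plex LC-MS/MS with channel sums equalised. Duplicate values are given as log-two fold change in thermal stability relative to solvent controls.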

[1] = compound: C/C(=N\NC(=O)C1=CC(=CC=C1)S(=O)(=O)N2CCOCC2)/C3=C(C=CC(=C3)Cl)O
Procedure, shortened: as §1

[2] = compound: C1=CC(=CC=C1C2=NC3=C(N2)C=C(C=C3)C(=O)N)OC4=CC=C(C=C4)Cl
Procedure, shortened: as §1

[3] = compound: C1=CC2=C(C=CC(=C2)/C=C\3/C(=O)NC(=NCC4=CC=CS4)S3)N=C1
Procedure, shortened: as §1

[4] = compound: C1=CC2=NC=CN=C2C=C1/C=C/3\C(=O)NC(=O)S3
Procedure, shortened: as §1

[5] = compound: C1=CC=C(C=C1)C2=NC(=C(N2)C3=CC=NC=C3)C4=CC(=C(C=C4)Cl)O
Procedure, shortened: as §1

[6] = compound: C1=CC=C2C(=C1)C3=NNC4=CC=CC(=C43)C2=O
Procedure, shortened: as §1

[7] = compound: C1CCN(C1)C(=O)NC2=CC=CC(=C2)NC3=NC=C(C(=N3)NCCC4=CN=CN4)Br
Procedure, shortened: as §1

[8] = compound: C1CN(CCC1(CC2=CC=C(C=C2)Cl)N)C3=NC=NC4=C3C=CN4
Procedure, shortened: as §1

IRAK-1-4 Inhibitor I = compound: C1COCCN1CCN2C3=CC=CC=C3N=C2NC(=O)C4=CC(=CC=C4)[N+](=O)[O-] [IRAK-1-4 Inhibitor I]
Procedure, shortened: as §1

ibrutinib = compound: C=CC(=O)N1CCC[C@@H](n2nc(-c3ccc(Oc4ccccc4)cc3)c3c(N)ncnc32)C1 [ibrutinib]
Procedure, shortened: as §1

[9] = compound: CC(=O)c1cnc2ccc(-c3cc(Cl)c(O)c(Cl)c3)nc2c1N[C@H]1CC[C@H](CN(C)C)CC1
Procedure, shortened: as §1

ralimetinib = compound: CC(C)(C)Cn1c(N)nc2ccc(-c3[nH]c(C(C)(C)C)nc3-c3ccc(F)cc3)nc21 [ralimetinib]
Procedure, shortened: as §1

[10] = compound: CC(C)(O)CC(=O)NCCn1ccc2ncnc(Nc3ccc(Oc4cccc(C(F)(F)F)c4)c(Cl)c3)c21
Procedure, shortened: as §1

[11] = compound: CC(C)C1=C2N=C(C=C(N2N=C1)NCC3=CC=CC=C3)NCCCCCCN
Procedure, shortened: as §1

[12] = compound: CC1=C(C(CC(=O)N1)C2=CC=C(C=C2)C(F)(F)F)C(=O)NC3=C(C=C4C(=C3)C=NN4)F
Procedure, shortened: as §1

[13] = compound: CC1=C(C2=C(C=C1)C(=O)C3=CC=CC=C3N2CCCN)C
Procedure, shortened: as §1

[14] = compound: CC1=C(C=C(C=C1)NC(=O)C2=CC(=CC=C2)C(C)(C)C#N)NC3=CC4=C(C=C3)N=CN(C4=O)C
Procedure, shortened: as §1

[15] = compound: CC1=C(C=C(C=C1)NC(=O)C2=CC(=CC=C2)N(C)C)NC(=O)C3=CC=C(C=C3)O
Procedure, shortened: as §1

[16] = compound: CC1=CC=C(C=C1)SC2=C3C=C(SC3=CN=C2)C(=O)N
Procedure, shortened: as §1

Measured: log2 fold change

PICALM (UniProt H0YEH1)
inactive: erlotinib -0.004 | [1] -0.111 | [2] 0.053 | [3] 0.066 | [4] -0.021 | [5] -0.015 | [6] 0.106 | [7] -0.219 | [8] -0.333 | IRAK-1-4 Inhibitor I 0.053 | ibrutinib -0.077 | [9] 0.009 | ralimetinib -0.035 | [10] -0.039 | [11] 0.05 | [12] 0.003 | [13] 0.014 | [14] -0.024 | [15] 0.012 | [16] -0.091

PKN3 (UniProt Q6P5Z2)
inactive: erlotinib 0 | [1] 0.165 | [2] -0.012 | [3] 0 | [4] -0.007 | [5] 0.124 | [6] 0.022 | [7] 0.014 | [8] -0.029 | IRAK-1-4 Inhibitor I 0.008 | ibrutinib 0.061 | ralimetinib -0.043 | [10] -0.003 | [11] 0.141 | [12] -0.061 | [13] 0.037 | [14] 0.023 | [15] 0.027

PHLDB3 (UniProt Q6NSJ2)
inactive: erlotinib 0.126 | [2] 0.013 | [11] 0.034 | [14] 0.215

PHACTR2 isoform 4 (UniProt O75167)
inactive: erlotinib 0.024 | [2] 0.066 | [4] -0.038 | [5] -0.054 | [7] 0.03 | [8] -0.345 | IRAK-1-4 Inhibitor I -0.043 | ibrutinib 0.098 | [9] -0.038 | ralimetinib -0.133 | [10] -0.112 | [11] -0.085 | [12] -0.104 | [13] -0.163 | [14] 0.069 | [15] 0.189 | [16] -0.041

PIP5K1A (UniProt Q99755)
inactive: erlotinib 0.036 | [2] -0.14 | [4] 0.022 | [5] -0.062 | IRAK-1-4 Inhibitor I -0.195 | ibrutinib 0.012 | [9] 0.201 | ralimetinib -0.053 | [10] 0.001 | [11] 0 | [12] 0.056 | [13] -0.127 | [14] 0.105 | [15] 0.02 | [16] -0.053

PLAUR (UniProt Q03405)
inactive: erlotinib -0.055 | [2] -0.091 | [7] 0.033 | [8] -0.046 | [11] 0.051 | [13] 0.152

PHC3 isoform 7 (UniProt Q8NDX5)
inactive: erlotinib -0.016 | [1] 0.03 | [2] -0.187 | [3] 0.053 | [6] -0.019 | [7] -0.072 | [8] 0.042 | [9] 0.033 | [11] 0.165 | [12] 0.026 | [13] -0.047 | [14] 0 | [16] 0.034

PKM (UniProt H3BTN5)
inactive: erlotinib -0.186 | [1] -0.052 | [2] -0.087 | [3] -0.07 | [4] 0.052 | [6] 0.047 | [7] 0.021 | [8] 0.024 | ibrutinib 0.013 | [9] 0.094 | [11] 0.034 | [14] 0.012 | [16] -0.295

PHF8 (UniProt Q9UPP1)
inactive: erlotinib 0.07 | [1] -0.13 | [2] -0.109 | [3] -0.089 | [5] -0.073 | [6] -0.1 | [7] -0.187 | [8] 0.122 | IRAK-1-4 Inhibitor I 0.067 | ralimetinib -0.097 | [10] 0.036 | [11] 0.076 | [12] -0.052 | [14] 0.07 | [15] -0.191

PIMREG (UniProt Q9BSJ6)
inactive: erlotinib -0.362 | [2] -0.066 | [4] 0.145 | [5] -0.032 | IRAK-1-4 Inhibitor I 0.004 | ibrutinib 0.14 | ralimetinib 0.027 | [10] 0.11 | [11] -0.235 | [14] 0.129 | [15] -0.181

PIGL (UniProt Q9Y2B2)
inactive: erlotinib -0.117 | [2] 0.221 | [4] -0.003 | [5] 0.001 | [7] -0.119 | [8] 0.145 | IRAK-1-4 Inhibitor I 0.098 | ibrutinib 0.024 | [9] -0.018 | ralimetinib -0.089 | [10] -0.11 | [11] -0.034 | [13] -0.604 | [14] -0.128 | [15] 0.075 | [16] 0.067

Two records drawn at random from those above, as already listed:
PHC3 isoform 7 (UniProt Q8NDX5)
inactive: erlotinib -0.016 | [1] 0.03 | [2] -0.187 | [3] 0.053 | [6] -0.019 | [7] -0.072 | [8] 0.042 | [9] 0.033 | [11] 0.165 | [12] 0.026 | [13] -0.047 | [14] 0 | [16] 0.034

PIMREG (UniProt Q9BSJ6)
inactive: erlotinib -0.362 | [2] -0.066 | [4] 0.145 | [5] -0.032 | IRAK-1-4 Inhibitor I 0.004 | ibrutinib 0.14 | ralimetinib 0.027 | [10] 0.11 | [11] -0.235 | [14] 0.129 | [15] -0.181

Remaining list, next part

PLEKHG2 (UniProt Q9H7P9)
inactive: erlotinib -0.039 | [2] 0.1 | [7] -0.011 | [8] 0.096 | [11] 0.028 | [13] -0.295

PIK3C2A (UniProt O00443)
inactive: erlotinib -0.038 | [2] 0.043 | [4] -0.017 | [5] 0.02 | [7] -0.037 | [8] 0.039 | IRAK-1-4 Inhibitor I 0.005 | ibrutinib 0.047 | [9] -0.014 | ralimetinib 0.045 | [10] 0.01 | [11] 0.003 | [12] -0.025 | [13] 0.029 | [14] 0.124 | [15] -0.072 | [16] -0.01

PIAS1 isoform 2 (UniProt O75925)
inactive: erlotinib -0.032 | [2] -0.127 | [11] 0.181 | [12] -0.455 | [13] -0.152 | [14] -0.032

PGM1 isoform 2 (UniProt P36871)
inactive: erlotinib 0.202 | [2] -0.277 | [7] 0.124 | [8] 0.113 | [11] 0.243 | [13] -0.073

PLCB4 isoform 4 (UniProt Q15147)
inactive: erlotinib 0.208 | [2] -0.531 | [5] 0.11 | [7] 0.315 | [8] 0.067 | IRAK-1-4 Inhibitor I -0.23 | [9] 0.131 | ralimetinib 0.088 | [10] -0.066 | [11] 0.105 | [15] -0.131 | [16] 0.023

PIP5K1C isoform 3 (UniProt O60331)
inactive: erlotinib -0.096 | [2] 0.003 | [4] -0.135 | [5] 0.005 | [7] -0.008 | [8] -0.034 | IRAK-1-4 Inhibitor I -0.056 | ibrutinib -0.165 | [9] 0.211 | ralimetinib 0.011 | [10] -0.019 | [11] 0.049 | [12] 0.097 | [13] 0.129 | [14] -0.036 | [15] 0.006 | [16] -0.06

PHF19 isoform 2 (UniProt Q5T6S3)
inactive: [1] -0.132 | [3] 0.013 | [4] -0.137 | [6] -0.025 | [7] 0.061 | [8] 0.005 | ibrutinib -0.074

PLA2G12A (UniProt Q9BZM1)
inactive: erlotinib -0.014 | [1] -0.003 | [2] -0.062 | [3] 0.008 | [4] -0.128 | [5] 0.174 | [6] -0.022 | IRAK-1-4 Inhibitor I -0.031 | ibrutinib -0.187 | [9] -0.061 | ralimetinib -0.107 | [10] 0.025 | [11] -0.002 | [12] 0.059 | [13] -0.065 | [14] -0.118 | [15] -0.117 | [16] -0.102

PICALM (UniProt H0YCY1)
inactive: erlotinib -0.09 | [2] 0.108 | [11] -0.155

PIGB (UniProt Q92521)
inactive: [1] 0.142 | [3] 0.202 | [4] -0.058 | [5] 0.109 | [6] -0.033 | [7] -0.163 | [8] 0.148 | IRAK-1-4 Inhibitor I -0.031 | ibrutinib 0.049 | ralimetinib 0.108 | [10] -0.012 | [14] -0.134 | [15] 0.02

PLEKHA2 (UniProt Q9HB19)
inactive: erlotinib -0.028 | [2] 0.009 | [4] -0.105 | [5] 0.119 | IRAK-1-4 Inhibitor I -0.12 | ibrutinib -0.079 | ralimetinib 0.079 | [10] 0 | [11] 0.047 | [12] -0.087 | [13] -0.135 | [14] 0.131 | [15] -0.239

PHF19 (UniProt Q5T6S3)
inactive: erlotinib -0.089 | [2] 0.095 | [5] -0.013 | IRAK-1-4 Inhibitor I -0.054 | ralimetinib -0.002 | [10] -0.05 | [11] -0.129 | [12] 0.058 | [14] -0.066 | [15] 0.099
